Laboratory results taken from PubChem BioAssay AID2685 (National Center for Advancing Translational Sciences (NCATS), 2010).
This is one part of the list. Shown are side measurements of this screen, not its main read-out; they come without a call. Most of these compounds were active or inconclusive in the main read-out, so they are no random draw. Potencies come from curve fits of mixed quality, noted in brackets.

Assay: qHTS Assay for Lipid Storage Modulators in Drosophila S3 Cells;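 for cell number change: cells counted by Cell Tracker Red CMTPX staining in the red channel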
Conditions: BODIPY lipid droplet fluorescence, 18-24 h; for cell number change: measured here: cell count max response, cells fed with added oleic acid
How it was run: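 Laser-scanning cytometry quantifies lipid droplet accumulation (500–530 nm total intensity; droplet/cell object ratio) in oleic acid-fed (400 uM added) Drosophila S3 cells treated with a concentration series. 20 uM Triacsin C defined 100% inhibition.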

[1] = measured here: lipid fluorescence (Fed channel) AC50, cells fed with added oleic acid
[2] = measured here: cell number channel AC50, cells fed with added oleic acid

SMILES	cell number change [%]	AC50 [1]	AC50 [2]
O=C(O)C1C2CC2CN1C(=O)c1ccc(Cl)cc1Cl (stereo unspecified)	-21.8	14.6 µM [rising, partial curve]	
Cc1ccccc1C(=O)N1CCC(C(=O)Nc2nccs2)CC1	6.49		2.59 µM [rising, partial curve]
Cn1c(=O)c2ccccc2n(Cc2ccccc2Cl)c1=O	-5.26		
Cc1ccc(N2C(=O)N3[C@H](c4ccc(F)cc4)[C@@H]4C(=O)N(C5CCCCC5)C(=O)[C@@H]4[C@]3(Cc3ccccc3)C2=O)cc1	41.7		18.4 µM [rising, single point]
O=c1c2ccccc2cnn1CCOc1cccc(Br)c1	37.6	4.61 µM [rising, full curve, poor fit]	18.4 µM [rising, single point]
O=[N+]([O-])c1c(Nc2ccccn2)cc(Cl)c2nonc12	-64	14.6 µM [falling, partial curve, poor fit]	0.0146 µM [falling, full curve]
O=C(OCn1nnc2ccccc2c1=O)C1COc2ccccc2O1 (stereo unspecified)	-14.7	29.1 µM [falling, partial curve, poor fit]	
Cc1cc(=O)c(C(=O)O)nn1-c1ccccc1Cl	24.2	0.461 µM [falling, partial curve]	
Cc1ccc(-c2cc(-c3ccccc3)c(C#N)c(N)n2)o1			2.91 µM [rising, single point]
Cc1ccccc1NC(=O)Cn1cnc2c(oc3nc4c(cc32)COC(C)(C)C4)c1=O	17.2		
O=[N+]([O-])c1ccccc1NCCNS(=O)(=O)c1ccc(Cl)cc1	19.9	29.1 µM [rising, single point]	
COc1ccc(CC(CC(=O)O)C(=O)Nc2ccc(Cl)c(Cl)c2)cc1 (stereo unspecified)	9.59	10.3 µM [rising, partial curve]	
O=C(Nc1ccccn1)c1ccco1	-6.14		
Cn1c(SCC(=O)Nc2nc(C(C)(C)C)cs2)nnc1C1CC1	-48	9.2 µM [falling, partial curve]	11.6 µM [falling, partial curve, poor fit]
CC(=O)/C=C(\C)Nc1ccc(-c2cnc(-c3ccccc3)o2)cc1	-25		
Cc1ccc(N(CCC#N)C(=O)CCl)cc1C	-7.97	23.1 µM [falling, single point]	
CN1CCN(c2ccccc2NC(=O)c2ccc3c(c2)OCCO3)CC1	17		
O=C(Nc1ccc(F)cc1)c1cccc2c1C(=O)N(Cc1ccccn1)C2	63.3	0.259 µM [rising, full curve]	1.84 µM [rising, full curve]
CC(=O)N(c1ccccc1Cl)S(=O)(=O)c1ccc(Cl)cc1	26.1	1.03 µM [rising, single point]	
Cc1ccc(NC(=O)CN(C)Cc2cc(=O)n3ccsc3n2)cc1	18	20.6 µM [rising, single point]	

Look-ups from the list.
CC(=O)N(c1ccccc1Cl)S(=O)(=O)c1ccc(Cl)cc1 | cell number change [%]: 26.1
Cn1c(=O)c2ccccc2n(Cc2ccccc2Cl)c1=O | cell number change [%]: -5.26

Later entries

SMILES	cell number change [%]	AC50 [1]	AC50 [2]
COc1ccc(NC(=O)CN(C)C(=O)C2=COCCO2)cc1	-19.2	3.66 µM [falling, full curve]	
Cc1ccc(S(=O)(=O)c2nc(-c3ccccc3F)oc2N2CC(C)OC(C)C2)cc1 (stereo unspecified)			4.11 µM [falling, single point]
O=C(OCc1ccccc1)N1CCc2ccccc21	-10.3	29.1 µM [rising, partial curve, poor fit]	
O=S(=O)(Nc1ccc(Cl)cc1)c1cccc2cccnc12	6.14	6.51 µM [falling, single point]	
O=C(COc1ccc(Cl)cc1)NCCCNC(=O)c1cccnc1	-25.7	0.206 µM [falling, single point]	
CC(C)CCNC(=O)C1CCN(S(=O)(=O)c2ccc3c(c2)CCC(=O)N3)CC1	-78.2		29.1 µM [falling, single point]
CCOc1ccc(CNC(=O)C2CCCN(S(C)(=O)=O)C2)cc1OC (stereo unspecified)	0.78	0.366 µM [falling, full curve, poor fit]	
O=C(Nc1ccc(SC(F)F)cc1)c1cc(-c2ccncc2)nc2ccccc12	-6.14	0.0206 µM [rising, single point]	
CCOC(=O)c1[nH]c2ccc(Br)cc2c1NC(=O)CCN1CCC(C)CC1		29.1 µM [rising, single point]	
C=CCn1c(SCC(=O)Nc2c(C)cccc2C)nnc1-c1cnccn1	59.8	0.146 µM [rising, full curve]	0.291 µM [rising, full curve]
CC(C)(C)OC(=O)N1CC=C2C(C#N)=C(N)C(C#N)(C#N)[C@H](c3cccnc3)[C@H]2C1		0.164 µM [rising, full curve, poor fit]	
O=C(O)CCC(=O)NNC(=O)CCCOc1ccc(Cl)cc1Cl	-9.27	3.66 µM [falling, partial curve]	1.3 µM [falling, single point]
CSc1nnc(C2CCN(CC(=O)Nc3ccccc3N3CCOCC3)CC2)n1C	-10.3	0.116 µM [rising, single point]	
CCOc1cc2nc3c4ccccc4n(C)c3nc2cc1OCC	17.2	0.291 µM [rising, partial curve, poor fit]	
Cc1c(-c2cccs2)[n+](=O)c2c(n1[O-])CCCCC2	0.0324	23.1 µM [rising, single point]	
CN(C(=O)CSc1ncnc2sccc12)C1CCCCC1	3.38		
Cc1oc(C(C)(C)C)cc1C(=O)NCC(=O)NCC(=O)O	87.8		29.1 µM [rising, single point]
COc1ccc(CCNC(=O)Cc2ccc3c(c2)OCO3)cc1OC	33.5		32.6 µM [rising, single point]
O=C1c2ccccc2C(=O)N1c1ccc(Cl)cn1	-55.7	10.3 µM [falling, partial curve]	3.26 µM [falling, full curve]
CCOc1ccc(N2CC(C(=O)Nc3cccc(C)c3C)CC2=O)cc1 (stereo unspecified)		1.84 µM [rising, single point]	0.259 µM [rising, partial curve, poor fit]

SMILES	cell number change [%]	AC50 [1]	AC50 [2]
COc1ccc(C(=O)COC(=O)CN2C(=O)NC3(CC(C)CC(C)(C)C3)C2=O)c(OC)c1 (stereo unspecified)	-36.4	0.206 µM [falling, full curve]	0.326 µM [falling, full curve, poor fit]
CCOC(=O)c1ccc2c(c1)nc(COc1ccc3ccccc3c1)n2CC		1.64 µM [rising, partial curve]	0.58 µM [rising, single point]
COc1ccc(CNc2ccc(C)c(C)c2)cc1	-18.9	32.6 µM [falling, single point]	
C=CCn1c(-c2cc(Cl)ccc2OC)n[nH]c1=S	58.8	1.46 µM [rising, partial curve]	9.2 µM [rising, partial curve]
O=C(NN1CCN(Cc2ccccc2Cl)CC1)c1ccc(Cl)cc1	23.4	3.66 µM [rising, single point]	
Cc1ccccc1C(=O)N1CCC(C(=O)Nc2ccccc2Cl)CC1	12		
COc1ccc(CN2CCC(Cc3ccccc3)CC2)c(C)c1C	16.8		
CSc1cccc(NC(=S)N(CCN(C)C)C(C)c2ccccn2)c1 (stereo unspecified)	54.9	18.4 µM [rising, single point]	23.1 µM [rising, single point]
O=C(Cn1cnc(Cl)c1Cl)c1ccc(F)cc1	-70.6	29.1 µM [falling, single point]	29.1 µM [falling, single point]
CCOc1ccc(CN2CCCN(C)CC2)cc1	-17.7	3.66 µM [falling, single point]	0.291 µM [falling, full curve, poor fit]
CCCNc1c(NS(=O)(=O)c2ccc(C(C)(C)C)cc2)c(=O)oc2ccccc12	22.1	0.0517 µM [rising, full curve]	
Cc1ccc(S(=O)(=O)NC(=O)c2ccc(Br)o2)c(C)c1	21.9	14.6 µM [rising, single point]	
COc1cc(NC(=O)c2ccco2)c(OC)cc1NC(=O)Nc1cccc(Cl)c1	-1.53	3.66 µM [falling, full curve, poor fit]	
CCOC(=O)c1[nH]c(C)c(C(=O)N2CCN(c3ccccc3)CC2)c1C	-14.1	20.6 µM [rising, single point]	
Cc1cccc(Oc2cc([N+](=O)[O-])cc3c2C(=O)Nc2ccccc2O3)c1	30.4	4.61 µM [rising, partial curve]	6.51 µM [rising, partial curve]
CCCCN(CC)C(=O)Cc1cn(C)c2ccccc12	4.37	29.1 µM [rising, single point]	
Cc1cc(Br)ccc1NC(=O)CN1CCN(c2ccccn2)CC1	-14.6		0.164 µM [falling, full curve, poor fit]
C/[N+]([O-])=C/c1c(OCc2ccccc2)ccc2ccccc12	22.7	1.03 µM [rising, full curve, poor fit]	
O=C(Nc1ccccc1F)C1CCN(S(=O)(=O)c2cccc3nonc23)CC1	-55.9		29.1 µM [falling, single point]
CC(C)C[C@H](NC(=O)N1CCn2c1nc1ccccc12)C(=O)NC1CC1	-15.7	29.1 µM [falling, single point]	
